PubChem BioAssay AID1259308 – NCATS | 2017

- Assay: 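Genes whose loss raises luciferase production in HEK293 cells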 (primary screen)
- Cells: human HEK293 embryonic kidney cells stably expressing firefly luciferase (HEK-CMV-Luc2-Hygro)
- Reagent: single siRNA against human genes, 0.8 pmol siRNA per well
- Duration: 72 h
- Measured: 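Luciferase light (ONE-Glo) measured on one replicate plate set and viability (CellTiter-Glo) on the other, scaled to a negative control siRNA, with robust z-scores and luciferase per cell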
- Scale: total luciferase, z-score and total luciferase, % of control: higher = more reporter protein produced; luciferase per cell, z-score: higher = more reporter output per viable cell; viable cells, % of control: higher = more viable cells
- Hit rule: 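Active when the median/MAD z-score for overall luciferase is greater than 3; a gene was taken forward for validation with new siRNAs if at least two of its three siRNAs passed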
- Calls: active = raised luciferase; inactive = no rise
The deposit covers about 59,000 reagents; shown is a random part of them. About 1,510 of all reagents (2.6%) count as active. 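Calls use total luciferase alone and ignore viability, so some active siRNAs may act by altering cell number.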 A number with no mark means an inactive call. Reagents against one gene are numbered here.

gene symbol,reagent,"total luciferase, z-score","total luciferase, % of control","luciferase per cell, z-score","viable cells, % of control"
TRIML1 (tripartite motif family like 1),1,-1.03,61.4,-1.2,94.2
TRIML1 (tripartite motif family like 1),2,1.09,104,0.475,102
TRIML1 (tripartite motif family like 1),3,0.372,89.3,0.235,93.8
OR4C13 (olfactory receptor family 4 subfamily C member 13),1,1.35,109,1.55,80.8
OR4C13 (olfactory receptor family 4 subfamily C member 13),2,2.58,133,1.87,91
OR4C13 (olfactory receptor family 4 subfamily C member 13),3,1.41,110,0.788,99.8
VKORC1 (vitamin K epoxide reductase complex subunit 1),1,-1.02,61.6,-0.583,80.3
VKORC1 (vitamin K epoxide reductase complex subunit 1),2,1.35,109,1.2,88.7
VKORC1 (vitamin K epoxide reductase complex subunit 1),3,-0.189,78.1,-0.388,96.7
CXCL16 (C-X-C motif chemokine ligand 16),1,1.42,110,1.41,85
CXCL16 (C-X-C motif chemokine ligand 16),2,-0.517,71.6,-0.167,83.6
CXCL16 (C-X-C motif chemokine ligand 16),3,-0.312,75.7,-0.137,87.7
SERINC3 (serine incorporator 3),1,-0.737,67.2,-0.0675,76.5
SERINC3 (serine incorporator 3),2,-0.77,66.6,-1.46,109
SERINC3 (serine incorporator 3),3,0.576,93.3,0.16,100
DSPP (dentin sialophosphoprotein),1,-0.214,77.6,-0.82,108
DSPP (dentin sialophosphoprotein),2,-0.276,76.4,-0.782,105
DSPP (dentin sialophosphoprotein),3,-1.7,48.1,-1.09,71.6
THEM6 (thioesterase superfamily member 6),1,0.268,87.2,0.75,80
THEM6 (thioesterase superfamily member 6),2,0.0395,82.7,-0.132,95.7
THEM6 (thioesterase superfamily member 6),3,1.15,105,0.775,95.5
USP10 (ubiquitin specific peptidase 10),1,-0.722,67.5,-0.988,97.9
USP10 (ubiquitin specific peptidase 10),2,0.312,88.1,-0.285,106
USP10 (ubiquitin specific peptidase 10),3,-0.351,74.9,-0.673,99.9
TMEM44 (transmembrane protein 44),1,-0.264,76.6,-0.405,95.3
TMEM44 (transmembrane protein 44),2,1.41,110,1.92,74.2
TMEM44 (transmembrane protein 44),3,0.269,87.2,0.341,89.1
WSCD2 (WSC domain sialate O sulfotransferase 2),1,-0.123,79.4,-0.666,106
WSCD2 (WSC domain sialate O sulfotransferase 2),2,-0.434,73.2,-0.571,95.1
WSCD2 (WSC domain sialate O sulfotransferase 2),3,0.101,83.9,0.0216,93.2
CRIM1 (cysteine rich transmembrane BMP regulator 1),1,0.306,88,-0.358,108
CRIM1 (cysteine rich transmembrane BMP regulator 1),2,-0.877,64.4,-0.267,77.3
CRIM1 (cysteine rich transmembrane BMP regulator 1),3,-0.811,65.8,-1.14,99.3
STXBP2 (syntaxin binding protein 2),1,-0.498,72,0.441,71.6
STXBP2 (syntaxin binding protein 2),2,0.305,88,0.752,80.6
STXBP2 (syntaxin binding protein 2),3,-0.419,73.6,-0.00434,82.3

Continued; the last 4 above are carried over.
gene symbol,reagent,"total luciferase, z-score","total luciferase, % of control","luciferase per cell, z-score","viable cells, % of control"
CRIM1 (cysteine rich transmembrane BMP regulator 1),3,-0.811,65.8,-1.14,99.3
STXBP2 (syntaxin binding protein 2),1,-0.498,72,0.441,71.6
STXBP2 (syntaxin binding protein 2),2,0.305,88,0.752,80.6
STXBP2 (syntaxin binding protein 2),3,-0.419,73.6,-0.00434,82.3
GPX6 (glutathione peroxidase 6),1,0.736,96.5,1.12,80.3
GPX6 (glutathione peroxidase 6),2,0.292,87.7,0.525,85.3
GPX6 (glutathione peroxidase 6),3,-0.812,65.7,-0.99,95.3
GGTLC1 (gamma-glutamyltransferase light chain 1),1,0.0559,83,-0.48,105
GGTLC1 (gamma-glutamyltransferase light chain 1),2,-0.875,64.5,-0.138,74.7
GGTLC1 (gamma-glutamyltransferase light chain 1),3,-1.65,49,-1.85,89
CPT1A (carnitine palmitoyltransferase 1A),1,0.0984,83.8,-0.196,98.7
CPT1A (carnitine palmitoyltransferase 1A),2,0.789,97.6,1.14,80.8
CPT1A (carnitine palmitoyltransferase 1A),3,0.209,86,-0.0806,98.2
LOC645263 (retired record),1,-0.941,63.2,-1.16,95.9
LOC645263 (retired record),2,0.138,84.6,0.099,92.1
LOC645263 (retired record),3,-2.87,24.9,-2.41,52.4
"PPM1J (protein phosphatase, Mg2+/Mn2+ dependent 1J)",1,-0.57,70.6,-0.113,81.2
"PPM1J (protein phosphatase, Mg2+/Mn2+ dependent 1J)",2,-1.61,49.9,-1.41,80.9
"PPM1J (protein phosphatase, Mg2+/Mn2+ dependent 1J)",3,-0.874,64.5,-1.65,111
TACO1 (translational activator of cytochrome c oxidase I),1,0.0731,83.3,-0.0861,95.3
TACO1 (translational activator of cytochrome c oxidase I),2,-1.2,58.1,-1.34,92.4
TACO1 (translational activator of cytochrome c oxidase I),3,1.3,108,0.726,99.4
ALLC (allantoicase),1,0.528,92.4,0.327,94.7
ALLC (allantoicase),2,-0.274,76.4,-0.58,99.5
ALLC (allantoicase),3,-0.0611,80.7,-0.653,107
